Measurements reported in patent WO2018095932A1.
No constants are given. Whether binding was seen depends on the method and setting. Some results given as binding are weak or reduced against the parent protein; the word gives no strength.

By UniProt entry, the sequences of proteins in these tests, tags left out. Where a name states a change or a piece, a line headed by the entry shows the natural chain unless it says otherwise.
UniProt P11362: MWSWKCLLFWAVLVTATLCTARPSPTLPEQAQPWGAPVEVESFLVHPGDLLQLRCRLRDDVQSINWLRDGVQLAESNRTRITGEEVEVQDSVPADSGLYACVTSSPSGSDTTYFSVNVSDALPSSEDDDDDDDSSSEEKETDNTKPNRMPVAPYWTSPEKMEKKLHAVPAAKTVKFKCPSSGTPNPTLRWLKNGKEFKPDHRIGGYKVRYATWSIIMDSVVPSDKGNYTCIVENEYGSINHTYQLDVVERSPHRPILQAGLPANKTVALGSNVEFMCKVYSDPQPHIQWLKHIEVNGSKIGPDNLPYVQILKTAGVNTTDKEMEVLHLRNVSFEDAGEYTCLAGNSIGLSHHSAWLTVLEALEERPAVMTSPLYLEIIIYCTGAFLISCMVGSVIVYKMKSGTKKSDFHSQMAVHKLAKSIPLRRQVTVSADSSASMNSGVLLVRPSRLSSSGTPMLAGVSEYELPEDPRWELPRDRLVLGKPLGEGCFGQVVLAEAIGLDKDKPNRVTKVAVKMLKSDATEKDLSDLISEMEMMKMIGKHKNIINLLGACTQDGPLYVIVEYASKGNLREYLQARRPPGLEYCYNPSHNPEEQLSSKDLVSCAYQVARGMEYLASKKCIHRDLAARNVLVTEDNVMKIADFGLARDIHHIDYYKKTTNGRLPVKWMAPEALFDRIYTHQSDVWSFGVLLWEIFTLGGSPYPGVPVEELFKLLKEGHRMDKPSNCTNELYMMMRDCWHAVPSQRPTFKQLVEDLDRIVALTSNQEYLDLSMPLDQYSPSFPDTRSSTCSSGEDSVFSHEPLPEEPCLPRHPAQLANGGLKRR

B1: mAb #A08 (#A08 hit), anti-FGFR1 antibody (antibody, V domains shown)
VH: EVQLQESGPGLVKPSGTLSLTCAVSGGSISSNNWWSWVRQPPGKGLEWIGEIYHSGSTSYNPSLKSRVTISVDKSKNQFSLKLNSVTAADTAVYYCARGTDWFDPWGQGTLVTVSS
VL: QAVLTQPPSVSVAPGQTARITCGGNNIGSESVHWYQQKPGQAPVLVVYDDSDRPSGIPERFSGSNSGNTATLTISRVEAGDEADYYCQVWDSTSDHRVFGGGTKLTVL
B2: clone #G04 as IgG (bivalent) (antibody, V domains shown)
VH: QVQLQESGPGLVKPSGTLSLTCAVSGGSISSNNWWSWVRQPPGKGLEWIGEIYHSGSTSYNPSLKSRVTISVDKSKNQFSLKLSSVTAADTAVYYCARGTDWYDLWGQGTLVTVSS
VL: SYVLTQPPSVSVAPGQTARITCGGNNIGSESVHWYQQKPGQAPVLVVYDDSDRPSGIPERFSGSNSGNTATLTISRVEAGDEADYYCQVWDSTSDHRVFGGGTKLTVLG
B3: clone #D02 as IgG (bivalent) (antibody, V domains shown)
VH: QVQLQESGPGLVKPSGTLSLTCAVSGGSISSNNWWSWVRQPPGKGLEWIGEIYHSGSTSYNPSLKSRVTISVDKSKNQFSLKLSSVTAADTAVYYCARGTDWIDTWGQGTLVTVSS
VL: SYVLTQPPSVSVAPGQTARITCGGNNIGSESVHWYQQKPGQAPVLVVYDDSDRPSGIPERFSGSNSGNTATLTISRVEAGDEADYYCQVWDSTSDHRVFGGGTKLTVLG

How the values were obtained:
[1] = biological target: human FGFR1b-IIIb extracellular domain with a His tag (human); experiment: ELISA
[2] = biological target: human FGFR1b-IIIc extracellular domain with a His tag (human) (UniProt P11362); experiment: ELISA
[3] = biological target: Human FGFR1 D2-His6 (human) (UniProt P11362); experiment: ELISA
[4] = biological target: human FGFR1b-IIIb extracellular domain with a His tag (human); experiment: SPR
[5] = biological target: human FGFR1b-IIIc extracellular domain with a His tag (human) (UniProt P11362); experiment: SPR
[6] = biological target: Human FGFR1 D2-His6 (human) (UniProt P11362); experiment: SPR (data not shown)
[7] = biological target: human FGFR1b-IIIb extracellular domain with a His tag (human); experiment: SPR (BIAcore), IgG format

Binder | binding [1] | binding [2] | binding [3] | binding [4] | binding [5] | binding [6] | binding [7]
B1 | binds | binds | binds | binds | binds | binds | –
B2 | – | – | – | – | – | – | binds
B3 | – | – | – | – | – | – | binds
